From article PMC8741576 (Molecular Diversity, 2022) come the findings set out here.

Common to all, as to format: cell-based
The subject of assay [1] is DND-41 acute lymphoblastic leukemia cells. As to the kind of experiment: Antiproliferative screening, IncuCyte cell growth. The settings on record: Homo sapiens, DND41, read-out: IC50 DND-41.
The subject of assay [2] is K-562 chronic myeloid leukemia cells. As to the kind of experiment: Antiproliferative screening, IncuCyte cell growth. The settings on record: Homo sapiens, K562, read-out: IC50 K-562.
Assay [3] concerns LN-229 glioblastoma cells. As to the kind of experiment: Antiproliferative screening, MTS cell viability assay. The conditions noted are these: Homo sapiens, LN-229, read-out: IC50 LN-229. On the technique in general: Tetrazolium assays rely on reduction of a dye to a coloured formazan, in cell work by metabolically active cells.
Assay [4] deals with Z-138 non-Hodgkin lymphoma cells. As to the kind of experiment: Antiproliferative screening, IncuCyte cell growth. The settings on record: Homo sapiens, Z-138, read-out: IC50 Z-138.

The IC50 is the midpoint of a concentration-inhibition curve. For `CN[C@@H]1C[C@H]2O[C@@](C)([C@@H]1OC)n1c3ccccc3c3c4c(c5c6ccccc6n2c5c31)C(=O)NC4` [STS, staurosporine, reference compound], the half-maximal inhibitory concentration (IC50) in assay [1] amounted to 0.0407 ± 0.003 µM; in assay [2], 0.0739 ± 0.003 µM; in assay [3], 0.0511 ± 0.003 µM; in assay [4] it was 0.0407 ± 0.003 µM.
